Earlier results as cited in publication PMC12056735 (RSC Advances, 2025).
pIC50: −log10 of the molar value. Read-outs that look alike come from different tables or passages of the source.

Tested on: HepG2
Conditions: cited from earlier work

## CNC(=O)c1cc(Oc2ccc(NC(=O)Nc3ccc(Cl)c(C(F)(F)F)c3)cc2)ccn1 [Sorafenib]
read-out: IC50 against HepG2
  pIC50: 5.13
read-out: IC50 against HepG-2
  pIC50: 5.28
